Test results published in paper doi:10.1101/2023.05.06.539678.

Target: T1, EMP3 WT tagged with Myc-glycine-serine linker-BioID2 at the C-terminal end (UniProt P54852)
T1 sequence: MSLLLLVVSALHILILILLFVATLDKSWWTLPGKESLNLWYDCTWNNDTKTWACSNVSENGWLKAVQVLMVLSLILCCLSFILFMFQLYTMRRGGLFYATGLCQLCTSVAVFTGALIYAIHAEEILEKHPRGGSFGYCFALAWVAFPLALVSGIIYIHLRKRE
Experiment: proximity labelling

B1: STX12 (protein, UniProt Q86Y82 1-276)
chain: MSYGPLDMYRNPGPSGPQLRDFSSIIQTCSGNIQRISQATAQIKNLMSQLGTKQDSSKLQENLQQLQHSTNQLAKETNELLKELGSLPLPLSTSEQRQQRLQKERLMNDFSAALNNFQAVQRRVSEKEKESIARARAGSRLSAEERQREEQLVSFDSHEEWNQMQSQEDEVAITEQDLELIKERETAIRQLEADILDVNQIFKDLAMMIHDQGDLIDSIEANVESSEVHVERATEQLQRAAYYQKKSRKKMCILVLVLSVIILILGLIIWLVYKTK
binding: binds

These are yes or no findings as the source states them, for the method shown. In cells and extracts the contact can be indirect. These calls come from enrichment with a bait or labelling near it, and not all partners need be listed. Where a sequence is shown, tags or fusion partners need not be part of it.
